Assay results taken from PubChem BioAssay AID540276 (National Center for Advancing Translational Sciences (NCATS), 2011).
Several values for one entry are separate records, joined by “and”; a condition that tells them apart may be missing. Identical values can stand only once. About 5,400 (1.8%) of roughly 300,000 compounds were called active. This list was built around the results that the source calls inconclusive (neither active nor inactive); the mix of calls is not that of the screen. Calls come from the whole dose curve; tested in HEK293 cells. Potencies of inconclusive entries are doubtful fits and often do not repeat. A structure can be active in one record and inactive in another.

assay: qHTS for inhibitors of binding or entry into cells for Marburg Virus; conditions: Marburg virus pseudotyped entry inhibition, cell reporter; activity change, negative = inhibition: at 37.8 µM (top of the series) unless noted
% is set by controls: 0 for no effect and ±100 for the full control effect; potency is the fitted concentration of half-maximal effect.

SMILES	activity change, negative = inhibition	Potency
CCNc1nc(NCC)n2c(SC(C(=O)Nc3cc(Cl)cc(Cl)c3)c3ccccc3)nnc2n1 (stereo not drawn)	inactive: 20.9%	–
Cc1cc(C)c2cc(CNC3CCCC3)c(Cl)nc2c1	–	inconclusive: 17.8 µM [inhibitor, partial curve, poor fit]
O=C(c1cccc(S(=O)(=O)N2CCN(c3ccccc3)CC2)c1)N1CCCCCCC1	–	inconclusive: 11.2 µM [inhibitor, partial curve, poor fit]
O=C(CN1C(=O)NC2(CCCCCC2)C1=O)c1ccc(OC(F)F)cc1OC(F)F	–	inconclusive: 0.178 µM [activator, full curve, poor fit]
COCCCNC(=S)Nc1c(C)cc(C)cc1C	inactive: -2.39% [at 46.1 µM]	–
Cc1ccc2c(c1)c(N=NC(N)=S)c(O)n2Cc1ccccc1	–	inconclusive: 7.08 µM [inhibitor, partial curve]
CCN(Cc1cc2cc(C)ccc2[nH]c1=O)C(=O)c1cccc(OC)c1	–	inconclusive: 7.08 µM [inhibitor, partial curve, poor fit]
COc1ccc(O)c(CN2CCC(n3nccc3NC(=O)c3ccccc3Cl)CC2)c1	–	inconclusive: 8.91 µM [inhibitor, partial curve]
COc1ccccc1C(CNC(=O)CNC(=O)c1ccc(C)c(C)c1)N1CCCC1 (stereo not drawn)	–	inconclusive: 0.355 µM [activator, partial curve, poor fit]
C/C(=N/NC(=O)c1ccoc1C)c1ccc(NC(=O)C2CCCC2)cc1	inactive: -11.6%	–
CCS(=O)(=O)N1CCN(S(=O)(=O)c2ccccc2[N+](=O)[O-])CC1	–	inconclusive: 5.62 µM [inhibitor, single point]
CC(=O)N1c2c(cc(Br)cc2S(=O)(=O)Nc2c(C)n(C)n(-c3ccccc3)c2=O)CC1C (stereo not drawn)	–	inconclusive: 2.51 µM [activator, partial curve, poor fit]
Cc1cnc2cc([N+](=O)[O-])ccc2n1	–	inconclusive: 0.651 µM [inhibitor, partial curve, poor fit]
Cc1ccc(S(=O)(=O)NNC(=O)c2ccncc2)cc1[N+](=O)[O-]	inactive: 6.52%	–
CC1CCN(C(=O)CSc2nnc(CNc3ccc(F)cc3)n2Cc2ccco2)CC1	inactive: -19%	–
Cc1ccc(C(C)(C)C)c(OCCCn2ccnc2)c1	–	inconclusive: 29.1 µM [inhibitor, single point]
C(=C\c1ccccc1)/CN1CCN(C(c2ccccc2)c2ccccc2)CC1	–	inactive and active: 8.91 µM and active: 20.6 µM
COc1cccc(OCCNc2cc(N3CCCCC3)ccc2[N+](=O)[O-])c1	–	inconclusive: 35.5 µM [inhibitor, single point]
CN(CC(=O)Nc1ccc(Cl)cc1)C(=O)c1cccc(S(=O)(=O)N2CCN(Cc3ccccc3)CC2)c1	–	inconclusive: 35.5 µM [inhibitor, single point]
CN(c1ccc(C(=O)Nc2ccccc2C(=O)N2CCOCC2)cc1)S(C)(=O)=O	–	inconclusive: 0.794 µM [inhibitor, single point]
O=C(CNC(c1ccccc1)c1ccccc1)Nc1c(F)cccc1F	–	inconclusive: 29.1 µM [inhibitor, partial curve, poor fit]
COC(=O)c1ccc(CNC(=O)c2ccc3oc(C(C)C)nc3c2)cc1	inactive: 8.4%	–

SMILES	activity change, negative = inhibition	Potency
O=C(NCCc1c[nH]c2ccccc12)C(=O)Nc1cc2c3c(c1)CC(=O)N3CCC2	inactive: -30.3%	–
Cc1c(NS(=O)(=O)c2ccccc2)cc(C(C)C)c(O)c1S(=O)(=O)c1ccc(Cl)cc1	–	active: 11.2 µM
Cc1nc(/C(N)=N/OC(=O)c2c(-c3ccccc3Cl)noc2C)cs1	–	active: 7.94 µM
C=CCOC(=O)C1=C(C)NC(SCC(=O)Nc2nccs2)=C(C#N)C1c1ccc(Cl)cc1 (stereo not drawn)	–	inconclusive: 35.5 µM [inhibitor, single point]
CCc1nc(N)nc(N)c1-c1ccc(N(C)Cc2ccccc2)c([N+](=O)[O-])c1	–	active: 0.891 µM
O=C(NN=C1C2CC3CC1CC(Cl)(C3)C2)c1cccs1	–	inconclusive: 11.2 µM [activator, partial curve]
CCCCCCn1c(O)c(C=NCCN2CCOCC2)c(=O)[nH]c1=O	inactive: -0.748%	–
O=C(CCCOc1ccc(Cl)cc1Cl)Nc1ccc(O)cc1C(=O)O	–	inconclusive: 32.6 µM [activator, partial curve, poor fit]
COc1cccc(NC(=O)Cn2cc(C(=O)C3CC3)c3ccccc32)c1	inactive: 14.2%	–
COc1ccccc1C1CCN(Cc2ccc(C)cc2)CC1	–	inconclusive: 8.91 µM [inhibitor, single point]
COc1ccccc1N(C)S(=O)(=O)c1ccc(C(=O)Nc2cc(F)ccc2C)cc1	inactive: 8.6% [at 46.1 µM]	–
O=S(=O)(c1ccc(F)c(F)c1)N1CCN(S(=O)(=O)c2cccs2)CC1	–	inconclusive: 0.1 µM [activator, full curve, poor fit]
COc1ccc(-c2noc(CNC(=O)c3ccco3)n2)cc1	inactive: -1.3% [at 46.1 µM]	–
CC#CC[N+](C)(C)CCCCCCCCCC	–	inconclusive: 10 µM [inhibitor, partial curve, poor fit]
COc1ncnc(OC)c1S(=O)(=O)NCc1ccccc1	–	inconclusive: 7.08 µM [activator, partial curve, poor fit]
OC(COc1ccc(Cl)c2ccccc12)CN1CCN(c2ccccn2)CC1 (stereo not drawn)	–	inconclusive: 35.5 µM [inhibitor, single point]
O=C(NCC(=O)N(c1cccnc1)C(C(=O)NCc1ccco1)c1ccccc1)c1ccco1 (stereo not drawn)	–	inactive
CN(C)c1ccc(N=Nc2ccccc2C(=O)OCC(=O)N2CCCCCC2)cc1	inactive: -6.04%	–
COc1ccc(CCC(=O)NCCOc2ccc(C)cc2)cc1	–	inconclusive: 10 µM [inhibitor, partial curve, poor fit]
O=C(Cn1ccc2ccccc2c1=O)NCCC(=O)N1CCN(c2cccc(Cl)c2)CC1	–	inconclusive: 0.291 µM [inhibitor, full curve, poor fit]
COCCn1c(SCc2csc(-c3ccccc3)n2)nc2ccccc21	–	inconclusive: 29.1 µM [inhibitor, single point]
